{"source": "patent US20130245598A1", "about": "“PHOTOACTIVE VITAMIN NANOPARTICLES FOR THE TREATMENT OF CHRONIC WOUNDS” (priority 2010, published 2013)", "test_system": "E. coli", "note": "At least one compound was matched to its structure with a doubt left.", "data": [{"compound": "CC1=C(C/C=C(\\C)CCC[C@H](C)CCC[C@H](C)CCCC(C)C)C(=O)c2ccccc2C1=O", "note": "[Phylloquinone, phylloquinone]", "values": [{"measurement": "LD50 E. coli Dark", "setting": "dark", "value": "1,100 mg/Kg"}, {"measurement": "LD50 E. coli Irradiated", "setting": "irradiated, one hour incubation, 30 minutes irradiation with low intensity light (about 5 J/cm^2)", "value": 423, "unit": "mg/kg"}]}]}
